# According to the M2OR odorant receptor database:
# Sequences of proteins named here, by UniProt entry; tags and fusion partners are left off. A change or cut given only in a name is not applied to a line headed by its entry.
# UniProt Q96RD3: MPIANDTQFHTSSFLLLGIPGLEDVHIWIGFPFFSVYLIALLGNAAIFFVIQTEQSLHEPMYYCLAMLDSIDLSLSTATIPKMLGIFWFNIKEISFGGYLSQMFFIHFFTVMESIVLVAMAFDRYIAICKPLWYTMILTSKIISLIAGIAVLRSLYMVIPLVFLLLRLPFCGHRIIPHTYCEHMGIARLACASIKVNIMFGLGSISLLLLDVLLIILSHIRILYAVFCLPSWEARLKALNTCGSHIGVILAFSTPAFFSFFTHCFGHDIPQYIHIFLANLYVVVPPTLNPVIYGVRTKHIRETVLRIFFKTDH
# Only a part is listed here, and it is no random draw. The calls were merged from several studies; some rest on single wells. The list shows a part of the results. Some of the results follow.
# How the values were obtained:
# Details in all cases: stereoisomer not certain
# [1] = molecular target: T1, OR51I2 (Homo sapiens) (UniProt Q9H344)
# T1 sequence (whole entry): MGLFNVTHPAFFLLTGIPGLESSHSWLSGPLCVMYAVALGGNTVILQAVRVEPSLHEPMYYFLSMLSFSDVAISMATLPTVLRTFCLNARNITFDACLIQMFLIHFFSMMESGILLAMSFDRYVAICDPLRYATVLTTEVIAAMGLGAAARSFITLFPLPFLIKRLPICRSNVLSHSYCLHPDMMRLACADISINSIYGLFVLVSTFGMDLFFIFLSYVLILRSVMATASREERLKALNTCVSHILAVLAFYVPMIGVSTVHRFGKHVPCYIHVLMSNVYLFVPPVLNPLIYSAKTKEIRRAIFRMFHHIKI
# Outline: (§1)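 Transient luciferase assays in mammalian cell lines were common, though methods varied by source. The values come from published papers and their supplementary material, with extra details from the original authors when needed. Responsive refers to a measured signal the original authors judged statistically different from baseline, and non-responsive (inactive) to the remainder.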
# [2] = molecular target: T2, OR51L1 (Homo sapiens) (UniProt Q8NGJ5)
# T2 sequence (whole entry): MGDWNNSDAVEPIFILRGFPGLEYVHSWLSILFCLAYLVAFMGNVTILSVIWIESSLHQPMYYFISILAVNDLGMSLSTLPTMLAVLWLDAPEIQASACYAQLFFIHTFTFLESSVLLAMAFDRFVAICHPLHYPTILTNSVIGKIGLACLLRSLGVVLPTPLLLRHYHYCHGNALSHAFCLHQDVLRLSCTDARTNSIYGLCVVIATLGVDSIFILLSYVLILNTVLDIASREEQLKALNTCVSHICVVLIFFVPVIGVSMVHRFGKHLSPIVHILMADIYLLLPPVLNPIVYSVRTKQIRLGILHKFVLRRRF
# Outline: as §1
# [3] = molecular target: T3, OR51S1 (Homo sapiens) (UniProt Q8NGJ8)
# T3 sequence (whole entry): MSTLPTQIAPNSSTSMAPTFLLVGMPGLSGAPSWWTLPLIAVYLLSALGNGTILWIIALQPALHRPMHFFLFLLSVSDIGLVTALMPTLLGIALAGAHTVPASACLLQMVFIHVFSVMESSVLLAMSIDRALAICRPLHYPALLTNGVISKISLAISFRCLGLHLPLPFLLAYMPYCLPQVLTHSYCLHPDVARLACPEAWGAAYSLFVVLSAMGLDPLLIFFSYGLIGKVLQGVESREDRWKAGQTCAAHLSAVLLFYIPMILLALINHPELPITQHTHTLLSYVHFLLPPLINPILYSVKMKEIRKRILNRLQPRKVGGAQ
# Outline: as §1
# [4] = molecular target: T4, OR52A4P (Homo sapiens) (UniProt A6NMU1)
# T4 sequence (whole entry): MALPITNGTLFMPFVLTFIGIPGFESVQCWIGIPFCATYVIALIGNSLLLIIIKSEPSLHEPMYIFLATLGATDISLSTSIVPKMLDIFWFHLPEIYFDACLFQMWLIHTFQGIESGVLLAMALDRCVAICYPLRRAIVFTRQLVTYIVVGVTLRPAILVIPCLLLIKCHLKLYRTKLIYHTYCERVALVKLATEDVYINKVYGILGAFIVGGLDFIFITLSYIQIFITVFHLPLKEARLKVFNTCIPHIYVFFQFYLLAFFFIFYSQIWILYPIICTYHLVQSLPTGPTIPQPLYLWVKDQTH
# Outline: as §1
# [5] = molecular target: T5, OR52A5 (Homo sapiens) (UniProt Q9H2C5)
# T5 sequence (whole entry): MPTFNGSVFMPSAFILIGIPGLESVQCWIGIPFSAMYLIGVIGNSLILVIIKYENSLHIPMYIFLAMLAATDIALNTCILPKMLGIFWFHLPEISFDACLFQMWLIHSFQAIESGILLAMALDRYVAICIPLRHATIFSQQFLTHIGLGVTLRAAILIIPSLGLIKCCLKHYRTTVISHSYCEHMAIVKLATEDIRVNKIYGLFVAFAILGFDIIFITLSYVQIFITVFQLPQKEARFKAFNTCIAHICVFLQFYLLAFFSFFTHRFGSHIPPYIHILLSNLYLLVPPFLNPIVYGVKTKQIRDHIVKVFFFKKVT
# Outline: as §1
# [6] = molecular target: T6, OR52B4 (Homo sapiens) (UniProt Q8NGK2)
# T6 sequence (whole entry): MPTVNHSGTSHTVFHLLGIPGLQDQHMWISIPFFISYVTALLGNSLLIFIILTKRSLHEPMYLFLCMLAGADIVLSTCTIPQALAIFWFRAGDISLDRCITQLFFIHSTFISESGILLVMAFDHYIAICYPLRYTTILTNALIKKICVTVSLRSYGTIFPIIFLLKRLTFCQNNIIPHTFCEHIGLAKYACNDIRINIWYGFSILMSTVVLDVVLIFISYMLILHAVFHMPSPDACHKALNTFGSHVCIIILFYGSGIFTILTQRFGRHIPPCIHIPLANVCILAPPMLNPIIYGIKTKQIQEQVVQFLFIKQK
# Outline: as §1
# [7] = molecular target: T7, OR52D1 (Homo sapiens) (UniProt Q9H346)
# T7 sequence (whole entry): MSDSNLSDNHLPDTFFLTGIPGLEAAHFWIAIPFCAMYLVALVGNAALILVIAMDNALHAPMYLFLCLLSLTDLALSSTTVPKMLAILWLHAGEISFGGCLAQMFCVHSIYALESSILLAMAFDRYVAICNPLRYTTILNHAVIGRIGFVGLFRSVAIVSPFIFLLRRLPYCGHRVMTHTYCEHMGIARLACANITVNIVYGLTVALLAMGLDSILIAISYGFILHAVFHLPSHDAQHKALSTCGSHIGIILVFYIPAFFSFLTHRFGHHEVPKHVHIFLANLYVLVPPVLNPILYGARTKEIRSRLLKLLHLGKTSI
# Outline: as §1
# [8] = molecular target: OR52E6 (Homo sapiens) (UniProt Q96RD3)
# Outline: as §1
# [9] = molecular target: T8, OR52H1 (Homo sapiens) (UniProt Q8NGJ2)
# T8 sequence (whole entry): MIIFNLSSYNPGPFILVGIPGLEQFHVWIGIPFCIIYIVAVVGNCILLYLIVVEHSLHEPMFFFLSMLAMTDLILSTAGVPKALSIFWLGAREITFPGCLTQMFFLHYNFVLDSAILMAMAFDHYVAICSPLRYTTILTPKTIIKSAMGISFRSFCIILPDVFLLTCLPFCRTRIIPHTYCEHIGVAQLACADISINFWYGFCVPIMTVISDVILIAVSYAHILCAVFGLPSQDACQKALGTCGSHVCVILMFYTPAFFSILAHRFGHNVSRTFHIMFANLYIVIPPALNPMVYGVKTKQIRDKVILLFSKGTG
# Outline: as §1
# [10] = molecular target: T9, OR52K1 (Homo sapiens) (UniProt Q8NGK4)
# T9 sequence (whole entry): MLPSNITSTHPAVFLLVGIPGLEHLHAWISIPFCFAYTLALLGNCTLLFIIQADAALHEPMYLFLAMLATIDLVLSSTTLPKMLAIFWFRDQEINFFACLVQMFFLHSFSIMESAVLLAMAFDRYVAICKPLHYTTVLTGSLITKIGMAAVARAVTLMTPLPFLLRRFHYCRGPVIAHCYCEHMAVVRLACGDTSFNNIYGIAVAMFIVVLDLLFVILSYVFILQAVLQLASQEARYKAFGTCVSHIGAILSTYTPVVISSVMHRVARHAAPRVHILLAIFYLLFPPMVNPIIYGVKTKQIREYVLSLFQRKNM
# Outline: as §1
# 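Further: active if original authors judged signal statistically different from baseline.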
Structure (SMILES),odorant receptor agonist call [1],odorant receptor agonist call [2],odorant receptor agonist call [3],odorant receptor agonist call [4],odorant receptor agonist call [5],odorant receptor agonist call [6],odorant receptor agonist call [7],odorant receptor agonist call [8],odorant receptor agonist call [9],odorant receptor agonist call [10]
CS,inactive,active,inactive,inactive,inactive,inactive,inactive,inactive,inactive,inactive
CCCCOC(C)=O,inactive,inactive,active,inactive,inactive,inactive,inactive,inactive,inactive,inactive
CCC(C)=O,inactive,inactive,inactive,inactive,inactive,inactive,inactive,inactive,inactive,inactive
CCOc1cc(C=O)ccc1O,–,–,–,–,–,–,inactive,–,–,–
